Experimental data as given in patent US20260274828A1, “BROAD SPECTRUM ANTIFUNGAL KETO-ALKYL-PYRIDINIUM COMPOUNDS” (priority 2023, published 2026).
For some assays here: For at least one compound, name, drawing or mass did not settle the structure. Some of these results come from one statement about several compounds together.

Legend:
C. albicans = test: Planktonic MIC, CLSI guidelines; format: cell-based, Candida albicans
Experimental: (§1) Minimum inhibitory concentrations were determined using CLSI guidelines (Beattie & Krysan, 2021; Wiederhold, 2021). All yeasts were cultured overnight in 3 mL YPD at 30° C., then washed twice in sterile PBS. Two-fold serial dilutions of each compound were prepared in RMPI+MOPS pH 7 (Gibco RPMI 1640 with L-glutamine [11875-093] and 0.165M 352 MOPS), then 1×10^3 cells were added per well. Plates were incubated at 37° C. for 24 hours (C. albicans and S. cerevisiae) or 72 hours (C. neoformans). For A. fumigatus and F. oxysporum wells were inoculated with 1.25×10^4 conidia. Plates were incubated at 37° C. for 48 hours for A. fumigatus and 72 hours for F. oxysporum. All MICs are defined as the well with complete growth inhibition as determined by visual inspection with the exception of MICs of fluconazole against C. albicans where the MIC is defined as at least 50% reduction in growth compared to the control.

C. auris [1] = test: Planktonic MIC, CLSI guidelines; format: cell-based, Candida auris
Experimental: as §1

C. auris [2] = settings: Simm et al., 2022; cited from earlier work

SMILES | activity relative to MIC reported for cetylpyridinium chloride (C. albicans) [fold] | activity relative to MIC reported for pyrvinium pamoate (C. auris [1]) [fold] | MIC (C. auris [2]) [µg/mL]
Nc1cc[n+](CC(=O)c2ccc3c(c2)OC(c2ccccc2)(c2ccccc2)O3)cc1.[Cl-] [Compound A] | ≤ 2 | ≤ 2 | 
Cc1cc(/C=C/c2ccc3cc(N(C)C)ccc3[n+]2C)c(C)n1-c1ccccc1 [pyrvinium pamoate] |  |  | 2
Cc1cc[n+](CC(=O)c2ccc(-c3ccc(Oc4ccccc4)cc3)cc2)cc1.[Br-] [Compound B] | ≤ 2 | ≤ 2 | 
